Data from PubChem BioAssay AID493014 (National Center for Advancing Translational Sciences (NCATS), 2011).
The list shows a part of the results. Further columns of the screen follow, without active or inactive calls. Most of these compounds were active or inconclusive in the main read-out, so they are no random draw. Words in brackets tell the shape of the fitted curve; partial curves, single points and poor fits give uncertain potencies.

Test: qHTS Assay to Find Inhibitors of Chronic Active B-Cell Receptor Signaling
Conditions: ABC-DLBCL IkBa-CBG/CBR reporter, luminescence ratio (green luciferase fused to IkBa over red control in TMD8 lymphoma cells), 4 h
Outline: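 Doxycycline induced both beetle luciferases in TMD8 lymphoma cells; IKK-driven degradation limits the IkappaBalpha-fused green signal, while red luminescence normalises for cell number and nonspecific effects. Compounds tested up to 46 uM, 4 hrs.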

[1] = measured here: CBR red luminescence, cell number
[2] = measured here: IkBa-CBG green luminescence

| SMILES | AC50 [1] | AC50 [2] |
| --- | --- | --- |
| C=CCN(c1ccccc1)S(=O)(=O)c1cccc(C(=O)NCC(c2ccc(F)cc2)N2CCOCC2)c1 (configuration not stated) | 16.4 µM [falling, partial curve] |  |
| O=C(CSc1nnc(CSc2nc3ccccc3s2)o1)NC1CCCCC1 | 3.16 µM [rising, partial curve] |  |
| CCOC(=O)c1cc(-c2ccc(OC)cc2)n(CCC(=O)Nc2ccc(OC)cc2OC)c1C | 35.5 µM [rising, single point] |  |
| CCOC(=O)c1nn(-c2ccc([N+](=O)[O-])cc2)cc1O | 4.47 µM [rising, single point] |  |
| O=C1N[C@H](Cc2ccccc2)COC(=O)[C@@H](Cc2ccc(F)cc2)C/C=C\C[C@H]1CC(=O)N(CCO)Cc1ccccc1 | 14.6 µM [falling, single point] |  |
| COc1ccc2nc(NC(=O)c3ccccc3C(=O)O)sc2c1 | 3.98 µM [falling, partial curve] |  |
| O=C1CC(c2ccccc2)CC(O)=C1C=NC1CCCC1 (configuration not stated) | 20 µM [falling, partial curve, poor fit] |  |
| O=C(Nc1nnc2n1CCS2)c1ccccc1 | 1.26 µM [rising, full curve, poor fit] |  |
| O=C1c2cccc3cccc(c23)C(=O)N1OS(=O)(=O)c1ccccc1 | 11.6 µM [rising, partial curve, poor fit] |  |
| Cc1ccc(C2CC2/C(=N/O)c2ccc(F)cc2)cc1 (configuration not stated) | 1.41 µM [rising, full curve, poor fit] |  |
| COC(=O)c1ccc2c(=O)n(CCCCCC(=O)NC(C)C)c(=O)[nH]c2c1 |  | 1.26 µM [rising, full curve, poor fit] |
| Nc1ccnc(Oc2ccc(F)cc2)c1 | 2.31 µM [rising, partial curve, poor fit] |  |
| COc1cc(CNCCc2ccccc2)cc(Cl)c1OCc1ccccc1 | 22.4 µM [falling, single point] | 28.2 µM [rising, single point] |
| COc1ccnc(-n2cccc2C#N)c1C#N | 4.47 µM [rising, partial curve, poor fit] |  |
| O=C(O)C1CCN(C(=O)CCN2C(=O)S/C(=C\c3ccccc3)C2=O)CC1 | 4.47 µM [falling, single point] |  |
| Cc1cc2ccccc2nc1SCC(=O)Nc1nc(-c2ccccc2)cs1 | 0.891 µM [falling, full curve] |  |
| Cc1cccc(C(=O)Nc2sc(C)c(-c3ccccc3)c2C#N)c1 | 1 µM [rising, full curve] |  |
| C=CCN1C(=O)CSc2ccc(C(=O)NCc3cccs3)cc21 | 14.1 µM [falling, single point] |  |
| Cc1ccc(-n2c(SCc3cn4ccsc4n3)nc3ccccc3c2=O)cc1 | 0.58 µM [rising, full curve, poor fit] |  |
| Cc1ccc(/C=N/NC(=O)c2ccoc2C)s1 | 16.4 µM [falling, partial curve] |  |
| O=C(Nc1cccnc1)c1ccc(Br)s1 | 0.731 µM [rising, partial curve, poor fit] |  |

Arranged by molar mass (low to high): three of the compounds above

| SMILES | AC50 [1] | AC50 [2] |
| --- | --- | --- |
| COc1ccnc(-n2cccc2C#N)c1C#N | 4.47 µM [rising, partial curve, poor fit] |  |
| O=C1CC(c2ccccc2)CC(O)=C1C=NC1CCCC1 (configuration not stated) | 20 µM [falling, partial curve, poor fit] |  |
| O=C1N[C@H](Cc2ccccc2)COC(=O)[C@@H](Cc2ccc(F)cc2)C/C=C\C[C@H]1CC(=O)N(CCO)Cc1ccccc1 | 14.6 µM [falling, single point] |  |

Next structures follow:

| SMILES | AC50 [1] | AC50 [2] |
| --- | --- | --- |
| O=CC1=C(c2ccccc2)Oc2ccccc2O1 | 35.5 µM [falling, single point] |  |
| Fc1ccc(N=c2ssnc2Cl)c(F)c1 | 15.8 µM [falling, single point] |  |
| CC(Sc1nnc(NCc2ccccc2)s1)C(=O)Nc1ccc2c(c1)C(=O)c1ccccc1C2=O (configuration not stated) | 18.4 µM [falling, single point] |  |
| Cc1c(C(=O)Nc2nnc(SCc3ccccc3Cl)s2)cccc1[N+](=O)[O-] | 6.51 µM [rising, full curve, poor fit] |  |
| O=C(NCc1ccc2c(c1)OCO2)c1cc(-c2ccccc2Cl)on1 | 10 µM [falling, partial curve, poor fit] |  |
| Cc1cc(C)nc(N(C#N)Cc2cccc3ccccc23)n1 | 29.1 µM [falling, single point] |  |
| N/C(=N\OC(=O)c1ccc(Cl)c(Cl)c1)c1cccnc1 | 0.058 µM [rising, full curve, poor fit] |  |
| COc1ccccc1N1CCN(c2nc3ccccn3c(=O)c2C=O)CC1 | 29.1 µM [rising, single point] | 18.4 µM [falling, partial curve, poor fit] |
| Cc1ccc(-n2c(SCC(=O)N3CCN(c4ccccn4)CC3)nnc2N2CCCC2)cc1 | 3.26 µM [rising, full curve, poor fit] |  |
| COc1ccc(C(=O)Nc2ccc3c(c2)OCCO3)cc1[N+](=O)[O-] | 0.708 µM [falling, full curve, poor fit] |  |
| O=C(Nc1ccc(NC(=O)c2ccccc2Cl)nc1)c1ccco1 | 15.8 µM [falling, partial curve] |  |
| CCOC(=O)c1ccc(NC(=S)NC(=O)COc2ccccc2)cc1 | 29.1 µM [rising, single point] |  |
| O=C(N/N=C/c1ccccn1)c1cc(-c2ccc3ccccc3c2)n[nH]1 | 18.4 µM [rising, single point] |  |
| CCN(CC(=O)Nc1ccc2c(c1)OCCO2)C(=O)c1ccc(Cl)cc1Cl | 9.2 µM [rising, partial curve, poor fit] |  |
| C[C@H](CO)N1C[C@H](C)[C@@H](CN(C)C(=O)NC2CCCCC2)Oc2ccc(NS(=O)(=O)c3cccs3)cc2C1=O | 29.1 µM [rising, single point] |  |
| Cn1c(=N)n(CC(O)c2ccco2)c2ccccc21 (configuration not stated) | 35.5 µM [falling, partial curve, poor fit] |  |
| CC(c1ccon1)N(C)C(=O)CCc1nnc(Cc2ccc(-c3ccccc3)cc2)o1 (configuration not stated) | 35.5 µM [falling, single point] |  |
| CN(C)c1ccc(/C=N/NC(=O)c2ccn(C)n2)cc1 | 5.62 µM [falling, partial curve] |  |
| c1cncc(-c2nc(NCCCn3ccnc3)c3ccccc3n2)c1 | 8.91 µM [falling, partial curve] |  |
| CC/C(=N\NC(=O)c1cc(C)nc2ccccc12)c1ccc(C)s1 | 10.3 µM [rising, partial curve] |  |
| CCCOc1cccc(C(=O)NC(=S)Nc2cccc(NC(=O)c3ccccc3Cl)c2)c1 | 2.31 µM [falling, full curve, poor fit] |  |

| SMILES | AC50 [1] | AC50 [2] |
| --- | --- | --- |
| CN(CC(=O)Nc1ccccc1C(=O)Nc1ccccc1)C1CCCCC1 | 20.6 µM [rising, single point] |  |
| CC(=C/c1ccccc1)/C=N/NC(=O)c1cccs1 | 11.2 µM [falling, partial curve, poor fit] |  |
| O=C(CC1SC(=O)N(c2ccccc2)C1=O)Nc1ccccc1 (configuration not stated) | 11.2 µM [falling, partial curve, poor fit] |  |
| Cc1ccc2nc(N(Cc3cccnc3)C(=O)c3cccs3)sc2c1 | 0.891 µM [falling, full curve, poor fit] |  |
| CC(C)N(CC#CC(O)(c1ccccc1)c1ccccc1)C(C)C | 1.26 µM [falling, full curve, poor fit] |  |
| O=C(/C=C/c1cccc([N+](=O)[O-])c1)OCC(=O)c1ccccc1 | 10 µM [rising, partial curve, poor fit] |  |
| COc1ccc(CN2C(=O)C(C)Nc3ncnc(N4CCOCC4)c32)cc1 (configuration not stated) | 29.1 µM [rising, single point] | 29.1 µM [falling, single point] |
| COc1ccc(CNc2ccc([N+](=O)[O-])cc2C)cc1 | 1.78 µM [rising, full curve, poor fit] |  |
| COC(=O)COc1cccc(NC(=O)c2ccc(C)cc2)c1 | 20 µM [falling, single point] |  |
| COCCNC(=O)/C(C#N)=C/c1cccc(NC(=O)c2ccccc2Cl)c1 | 8.2 µM [falling, partial curve] |  |
| Cc1occc1C(=O)Nc1ccc2c(c1)OCCO2 | 10 µM [falling, partial curve] |  |
| COc1cc(OC)cc(C(=O)NNC(=O)NC2CCCCC2)c1 | 4.11 µM [falling, partial curve, poor fit] | 32.6 µM [falling, partial curve, poor fit] |
| Cn1c(N)c(C(=O)COC(=O)CCC2CCCC2)c(=O)n(C)c1=O |  | 3.98 µM [rising, full curve, poor fit] |
| Cc1ccc2nc3c(cc(S(=O)(=O)c4ccccc4)c(=N)n3Cc3ccco3)c(=O)n2c1 | 25.1 µM [falling, single point] |  |
| CCC(C)(C)NC(=O)C(OC(=O)c1ccco1)c1ccccc1OC (configuration not stated) | 13 µM [rising, single point] |  |
| COc1ccc2sc(N(CCN(C)C)C(=O)/C=C/c3cccs3)nc2c1 | 35.5 µM [falling, single point] |  |
| CCCC[C@@H]1CN=C(N)N1CCc1cc(C(F)(F)F)cc(C(F)(F)F)c1 | 11.2 µM [falling, single point] |  |
| CC(C)C(NC(=O)c1ccc(S(=O)(=O)N2CCOCC2)cc1)c1nc2ccccc2[nH]1 (configuration not stated) | 0.708 µM [rising, partial curve, poor fit] |  |
| O=C1NCCN1Cc1ccc(F)cc1 | 29.1 µM [rising, single point] |  |
| O=c1cc2oc3cc(O)c(O)cc3c(-c3ccccc3O)c-2cc1O | 35.5 µM [rising, partial curve, poor fit] |  |
| COC(=O)c1ccccc1S(=O)(=O)N1CCC(C(=O)NC2CCCCC2)CC1 | 0.231 µM [rising, full curve, poor fit] |  |
